Laboratory results reported in the supplement of paper PMC10849652.
The list shows a part of the results.

Amino acid sequences for entries named in this document (tags omitted). A change or cut given only in a name is not applied to a line headed by its entry.
UniProt P27105: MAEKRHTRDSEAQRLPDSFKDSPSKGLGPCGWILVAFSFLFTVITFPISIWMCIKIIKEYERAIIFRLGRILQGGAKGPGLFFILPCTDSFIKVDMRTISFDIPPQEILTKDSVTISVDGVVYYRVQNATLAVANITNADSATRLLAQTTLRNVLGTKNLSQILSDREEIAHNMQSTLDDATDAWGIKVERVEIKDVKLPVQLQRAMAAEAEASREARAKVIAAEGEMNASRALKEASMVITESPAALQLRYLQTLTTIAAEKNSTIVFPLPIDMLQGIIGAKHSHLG
UniProt Q92750: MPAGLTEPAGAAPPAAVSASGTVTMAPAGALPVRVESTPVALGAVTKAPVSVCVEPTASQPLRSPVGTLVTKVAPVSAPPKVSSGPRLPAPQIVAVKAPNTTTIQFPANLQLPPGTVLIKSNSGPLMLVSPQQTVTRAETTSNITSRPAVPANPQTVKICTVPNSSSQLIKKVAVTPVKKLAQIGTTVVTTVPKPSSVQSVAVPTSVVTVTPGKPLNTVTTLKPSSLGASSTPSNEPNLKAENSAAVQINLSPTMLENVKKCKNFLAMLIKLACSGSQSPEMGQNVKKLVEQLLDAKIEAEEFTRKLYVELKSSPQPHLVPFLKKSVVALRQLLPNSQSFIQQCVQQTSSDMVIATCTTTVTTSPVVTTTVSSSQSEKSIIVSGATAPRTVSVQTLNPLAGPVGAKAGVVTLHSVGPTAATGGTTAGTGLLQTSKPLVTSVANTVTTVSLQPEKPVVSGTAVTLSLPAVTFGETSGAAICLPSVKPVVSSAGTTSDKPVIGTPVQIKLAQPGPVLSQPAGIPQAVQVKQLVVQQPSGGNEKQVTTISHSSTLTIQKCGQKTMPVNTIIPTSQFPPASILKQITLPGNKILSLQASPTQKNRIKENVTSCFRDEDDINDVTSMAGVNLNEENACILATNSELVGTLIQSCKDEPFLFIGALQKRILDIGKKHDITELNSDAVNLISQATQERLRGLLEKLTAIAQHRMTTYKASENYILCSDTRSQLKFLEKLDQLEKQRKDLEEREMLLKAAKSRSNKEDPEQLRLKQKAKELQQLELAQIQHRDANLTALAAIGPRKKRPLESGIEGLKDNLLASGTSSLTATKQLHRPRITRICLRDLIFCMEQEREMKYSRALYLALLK
UniProt O43752: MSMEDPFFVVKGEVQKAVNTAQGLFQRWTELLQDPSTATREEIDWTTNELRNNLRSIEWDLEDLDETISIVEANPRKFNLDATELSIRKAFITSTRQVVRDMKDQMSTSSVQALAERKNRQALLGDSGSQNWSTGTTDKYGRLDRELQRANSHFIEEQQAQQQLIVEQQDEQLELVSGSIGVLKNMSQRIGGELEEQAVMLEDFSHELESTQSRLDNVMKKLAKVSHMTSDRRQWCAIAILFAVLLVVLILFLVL
UniProt B4DR80: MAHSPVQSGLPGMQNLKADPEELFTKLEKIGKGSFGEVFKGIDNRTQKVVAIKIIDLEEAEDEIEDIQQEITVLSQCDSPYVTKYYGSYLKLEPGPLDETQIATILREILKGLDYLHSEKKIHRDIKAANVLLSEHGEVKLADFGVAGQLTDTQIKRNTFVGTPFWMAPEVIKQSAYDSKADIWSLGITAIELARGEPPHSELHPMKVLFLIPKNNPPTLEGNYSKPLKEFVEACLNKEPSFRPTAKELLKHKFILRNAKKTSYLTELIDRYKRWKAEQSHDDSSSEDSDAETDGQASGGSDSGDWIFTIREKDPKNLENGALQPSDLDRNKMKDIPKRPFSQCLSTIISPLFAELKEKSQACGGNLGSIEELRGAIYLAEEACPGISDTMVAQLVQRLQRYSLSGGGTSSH
UniProt P63165, whole entry, looked up: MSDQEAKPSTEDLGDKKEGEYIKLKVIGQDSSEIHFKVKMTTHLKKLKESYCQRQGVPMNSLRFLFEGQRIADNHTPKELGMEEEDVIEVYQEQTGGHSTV
UniProt Q15831: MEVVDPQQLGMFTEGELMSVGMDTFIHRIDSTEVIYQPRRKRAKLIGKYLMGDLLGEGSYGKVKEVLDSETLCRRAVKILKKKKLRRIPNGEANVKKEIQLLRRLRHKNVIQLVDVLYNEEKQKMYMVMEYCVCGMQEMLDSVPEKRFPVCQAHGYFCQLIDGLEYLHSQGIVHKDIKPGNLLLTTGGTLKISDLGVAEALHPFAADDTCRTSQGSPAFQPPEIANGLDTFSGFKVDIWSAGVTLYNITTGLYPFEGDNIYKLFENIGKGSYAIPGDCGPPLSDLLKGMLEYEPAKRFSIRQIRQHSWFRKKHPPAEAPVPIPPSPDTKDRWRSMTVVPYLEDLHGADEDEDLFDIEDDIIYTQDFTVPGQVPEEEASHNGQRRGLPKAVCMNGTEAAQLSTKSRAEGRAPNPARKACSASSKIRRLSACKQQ
UniProt P46977: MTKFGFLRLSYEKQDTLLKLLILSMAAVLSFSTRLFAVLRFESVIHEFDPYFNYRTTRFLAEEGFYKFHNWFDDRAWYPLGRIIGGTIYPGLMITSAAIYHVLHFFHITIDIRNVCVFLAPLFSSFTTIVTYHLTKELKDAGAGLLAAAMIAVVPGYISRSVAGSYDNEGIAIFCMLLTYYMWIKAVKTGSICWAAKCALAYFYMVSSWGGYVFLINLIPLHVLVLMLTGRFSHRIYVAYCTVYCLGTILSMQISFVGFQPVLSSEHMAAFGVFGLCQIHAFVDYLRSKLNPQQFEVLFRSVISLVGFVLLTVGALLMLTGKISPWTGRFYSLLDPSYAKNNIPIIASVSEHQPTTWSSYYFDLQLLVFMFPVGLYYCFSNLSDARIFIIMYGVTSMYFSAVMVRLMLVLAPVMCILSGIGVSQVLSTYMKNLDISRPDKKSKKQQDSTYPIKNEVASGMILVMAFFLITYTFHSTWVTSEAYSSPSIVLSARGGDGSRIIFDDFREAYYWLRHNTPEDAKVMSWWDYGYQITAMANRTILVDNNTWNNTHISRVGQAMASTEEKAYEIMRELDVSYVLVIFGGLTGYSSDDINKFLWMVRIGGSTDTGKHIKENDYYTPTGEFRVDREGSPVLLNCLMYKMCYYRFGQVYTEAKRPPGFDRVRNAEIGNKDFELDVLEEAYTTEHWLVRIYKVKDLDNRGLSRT
UniProt Q8WXE9: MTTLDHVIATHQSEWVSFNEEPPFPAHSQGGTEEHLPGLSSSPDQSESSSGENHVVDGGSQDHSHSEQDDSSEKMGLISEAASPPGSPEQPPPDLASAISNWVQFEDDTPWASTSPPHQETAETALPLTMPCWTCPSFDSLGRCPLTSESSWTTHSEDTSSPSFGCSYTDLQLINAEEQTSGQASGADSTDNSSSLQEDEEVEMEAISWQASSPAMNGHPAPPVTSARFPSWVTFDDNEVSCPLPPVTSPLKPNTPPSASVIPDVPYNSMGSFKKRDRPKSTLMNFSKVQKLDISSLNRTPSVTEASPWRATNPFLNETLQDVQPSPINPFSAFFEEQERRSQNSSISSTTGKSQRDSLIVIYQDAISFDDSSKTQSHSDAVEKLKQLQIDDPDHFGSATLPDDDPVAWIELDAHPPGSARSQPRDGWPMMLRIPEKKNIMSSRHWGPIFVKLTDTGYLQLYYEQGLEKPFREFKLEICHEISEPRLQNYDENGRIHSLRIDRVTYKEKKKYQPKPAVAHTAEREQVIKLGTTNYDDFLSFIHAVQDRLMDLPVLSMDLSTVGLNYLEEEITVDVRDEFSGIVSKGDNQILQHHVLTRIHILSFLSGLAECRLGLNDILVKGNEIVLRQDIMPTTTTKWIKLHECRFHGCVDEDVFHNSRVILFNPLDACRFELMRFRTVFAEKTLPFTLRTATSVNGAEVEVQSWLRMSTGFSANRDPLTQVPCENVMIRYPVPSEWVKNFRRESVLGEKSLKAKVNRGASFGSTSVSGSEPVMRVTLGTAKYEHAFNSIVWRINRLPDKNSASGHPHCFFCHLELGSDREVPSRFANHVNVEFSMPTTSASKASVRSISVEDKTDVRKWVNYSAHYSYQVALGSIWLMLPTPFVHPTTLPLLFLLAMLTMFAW
UniProt Q9H169: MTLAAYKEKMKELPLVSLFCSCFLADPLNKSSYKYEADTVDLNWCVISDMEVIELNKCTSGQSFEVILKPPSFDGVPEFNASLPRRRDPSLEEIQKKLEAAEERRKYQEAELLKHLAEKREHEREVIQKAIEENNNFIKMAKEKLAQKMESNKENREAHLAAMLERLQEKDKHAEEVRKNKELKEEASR
UniProt Q7RTN6: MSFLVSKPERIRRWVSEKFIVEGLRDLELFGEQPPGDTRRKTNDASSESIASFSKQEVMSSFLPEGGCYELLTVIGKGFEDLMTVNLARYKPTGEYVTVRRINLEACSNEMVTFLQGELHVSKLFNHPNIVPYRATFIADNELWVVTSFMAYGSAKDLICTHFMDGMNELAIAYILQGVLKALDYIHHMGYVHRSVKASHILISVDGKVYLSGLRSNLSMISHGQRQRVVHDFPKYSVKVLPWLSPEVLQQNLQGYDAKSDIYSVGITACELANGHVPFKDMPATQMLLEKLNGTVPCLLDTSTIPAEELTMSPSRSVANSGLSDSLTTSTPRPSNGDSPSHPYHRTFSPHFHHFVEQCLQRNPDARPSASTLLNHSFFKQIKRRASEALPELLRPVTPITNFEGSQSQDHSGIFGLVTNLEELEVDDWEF
UniProt Q9UNE7: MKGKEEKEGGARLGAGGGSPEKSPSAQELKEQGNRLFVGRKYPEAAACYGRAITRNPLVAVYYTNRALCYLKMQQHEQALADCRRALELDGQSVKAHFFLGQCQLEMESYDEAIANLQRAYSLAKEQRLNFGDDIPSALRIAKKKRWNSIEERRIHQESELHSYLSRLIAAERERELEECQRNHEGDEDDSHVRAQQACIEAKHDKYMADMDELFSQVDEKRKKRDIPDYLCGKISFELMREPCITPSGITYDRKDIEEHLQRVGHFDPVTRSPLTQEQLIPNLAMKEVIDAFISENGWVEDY
UniProt O00506, whole entry, looked up: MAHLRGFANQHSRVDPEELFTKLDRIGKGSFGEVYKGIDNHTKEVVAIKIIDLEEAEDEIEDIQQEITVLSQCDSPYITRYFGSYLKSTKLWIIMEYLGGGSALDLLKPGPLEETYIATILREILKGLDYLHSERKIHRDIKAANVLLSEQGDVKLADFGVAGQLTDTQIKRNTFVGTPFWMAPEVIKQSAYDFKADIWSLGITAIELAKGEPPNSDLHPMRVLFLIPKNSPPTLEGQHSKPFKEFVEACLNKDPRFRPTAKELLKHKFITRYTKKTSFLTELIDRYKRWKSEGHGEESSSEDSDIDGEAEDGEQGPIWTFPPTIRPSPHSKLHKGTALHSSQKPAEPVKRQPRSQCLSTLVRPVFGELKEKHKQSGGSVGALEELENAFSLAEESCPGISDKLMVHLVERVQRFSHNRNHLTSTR
UniProt Q12846: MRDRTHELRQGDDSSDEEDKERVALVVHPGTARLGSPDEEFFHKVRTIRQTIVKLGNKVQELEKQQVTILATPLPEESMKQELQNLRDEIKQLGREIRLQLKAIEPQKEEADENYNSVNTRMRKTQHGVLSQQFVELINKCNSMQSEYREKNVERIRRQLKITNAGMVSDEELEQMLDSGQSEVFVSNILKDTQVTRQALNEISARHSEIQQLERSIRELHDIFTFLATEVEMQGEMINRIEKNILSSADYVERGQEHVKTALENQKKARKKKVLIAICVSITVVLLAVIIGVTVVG
UniProt Q9Y3F4: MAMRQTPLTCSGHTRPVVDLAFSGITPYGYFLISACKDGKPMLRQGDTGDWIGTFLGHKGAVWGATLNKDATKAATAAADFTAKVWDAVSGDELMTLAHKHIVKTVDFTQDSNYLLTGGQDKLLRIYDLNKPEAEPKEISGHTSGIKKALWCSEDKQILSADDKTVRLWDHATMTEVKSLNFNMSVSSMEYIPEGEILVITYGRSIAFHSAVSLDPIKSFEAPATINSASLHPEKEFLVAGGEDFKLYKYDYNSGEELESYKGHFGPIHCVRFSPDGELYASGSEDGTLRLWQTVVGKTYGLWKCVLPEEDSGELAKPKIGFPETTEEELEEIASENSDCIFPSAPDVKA

Experiments:
Assay in all cases: log2 fold change, soluble protein after heating vs DMSO (PISA); higher = thermal stabilisation; K562 lysate, 10 uM; active = over 0.2 and 3.5 SD of the protein, either way, in both replicates (recomputed)
vemurafenib = compound: CCCS(=O)(=O)Nc1ccc(F)c(C(=O)c2c[nH]c3ncc(-c4ccc(Cl)cc4)cc23)c1F [vemurafenib]
Summary of the method: (§1)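 Log-two fold change in thermal stability relative to solvent controls is reported from duplicates. For each sample, crude K562 extract from dounce-homogenised pellets in PBS pH 7.4 with 1 mM MgCl2, at 1 mg/mL protein, was treated with 10 μM compound for 30 min. Aliquots heated for 3 min across 48°C-58°C were pooled, brought to 0.5% NP-40 at 4°C and cleared at 21,000xg for 90 min. The supernatant was quantified by TMTpro 16plex LC-MS/MS with channel sums equalised.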

[1] = compound: CCCS(=O)(=O)Nc1ccc(F)c(C(=O)c2c[nH]c3ncc(Cl)cc23)c1F
Summary of the method: as §1

barasertib = compound: CCN(CCCOc1ccc2c(Nc3cc(CC(=O)Nc4cccc(F)c4)[nH]n3)ncnc2c1)CCOP(=O)(O)O [barasertib]
Summary of the method: as §1

[2] = compound: CC[C@@H]1C(=O)N(C)c2cnc(Nc3ccc(C(=O)NC4CCN(C)CC4)cc3OC)nc2N1C1CCCC1
Summary of the method: as §1

volasertib = compound: CC[C@@H]1C(=O)N(C)c2cnc(Nc3ccc(C(=O)N[C@H]4CC[C@H](N5CCN(CC6CC6)CC5)CC4)cc3OC)nc2N1C(C)C [volasertib]
Summary of the method: as §1

[3] = compound: CCn1c(C(=O)N(C2CC2)C2CC2)cc2c3c(ncn3C)c(Nc3cc(C)n(C)n3)nc21
Summary of the method: as §1

[4] = compound: CCn1cc(-c2ccnc3[nH]c(-c4cccc(CN(C)C)c4)cc23)c(-c2ccc(NC(=O)N(C)C)cc2)n1
Summary of the method: as §1

[5] = compound: CN1CCC(CNc2ccc3ncc(-c4cccc(OC(F)(F)F)c4)n3n2)CC1
Summary of the method: as §1

saracatinib = compound: CN1CCN(CCOc2cc(OC3CCOCC3)c3c(Nc4c(Cl)ccc5c4OCO5)ncnc3c2)CC1 [saracatinib]
Summary of the method: as §1

sotrastaurin = compound: CN1CCN(c2nc(C3=C(c4c[nH]c5ccccc45)C(=O)NC3=O)c3ccccc3n2)CC1 [sotrastaurin]
Summary of the method: as §1

alvocidib = compound: CN1CC[C@H](c2c(O)cc(O)c3c(=O)cc(-c4ccccc4Cl)oc23)[C@H](O)C1 [alvocidib]
Summary of the method: as §1

Tubastatin A = compound: CN1CCc2c(c3ccccc3n2Cc2ccc(C(=O)NO)cc2)C1 [Tubastatin A]
Summary of the method: as §1

[6] = compound: CNC(=O)C1=CC=CC=C1NC2=NC(=NC=C2Cl)NC3=C(C=C(C=C3)N4CCOCC4)OC
Summary of the method: as §1

defactinib = compound: CNC(=O)c1ccc(Nc2ncc(C(F)(F)F)c(NCc3nccnc3N(C)S(C)(=O)=O)n2)cc1 [defactinib]
Summary of the method: as §1

[7] = compound: CNc1nc(-c2ccc3c(N)n[nH]c3c2)cc(N2C[C@@H](C(=O)NC3CCCCC3)CC[C@H]2C)n1
Summary of the method: as §1

encorafenib = compound: COC(=O)N[C@@H](C)CNc1nccc(-c2cn(C(C)C)nc2-c2cc(Cl)cc(NS(C)(=O)=O)c2F)n1 [encorafenib]
Summary of the method: as §1

[8] = compound: COC(=O)[C@H](CCSC)NC(=O)C1=C(C=C(C=C1)NC[C@H](CS)N)C2=CC=CC=C2
Summary of the method: as §1

alisertib = compound: COc1cc(Nc2ncc3c(n2)-c2ccc(Cl)cc2C(c2c(F)cccc2OC)=NC3)ccc1C(=O)O [alisertib]
Summary of the method: as §1

[9] = compound: COc1cc2nc(-c3cc(F)ccc3O)nc(N[C@@H]3CNC[C@H]3C(C)(C)O)c2cc1OC
Summary of the method: as §1

gefitinib = compound: COc1cc2ncnc(Nc3ccc(F)c(Cl)c3)c2cc1OCCCN1CCOCC1 [gefitinib]
Summary of the method: as §1

Measured: log2 fold change

STOM (UniProt P27105)
inactive: vemurafenib 0.019 | [1] 0.001 | barasertib 0.021 | [2] -0.122 | volasertib 0.021 | [3] -0.038 | [4] -0.065 | [5] 0.013 | saracatinib -0.01 | sotrastaurin 0.004 | alvocidib 0.003 | Tubastatin A 0.033 | [6] 0.031 | defactinib 0.023 | [7] -0.118 | encorafenib 0.014 | [8] -0.021 | alisertib -0.021 | [9] 0.029 | gefitinib 0.027

TAF4B (UniProt Q92750)
inactive: vemurafenib 0.142 | [1] -0.129 | barasertib 0.049 | [2] 0.01 | volasertib -0.487 | [3] -0.015 | [4] -0.038 | [5] 0.046 | saracatinib 0.067 | sotrastaurin 0.003 | alvocidib 0.051 | Tubastatin A 0.099 | [6] -0.103 | defactinib -0.063 | [7] -0.006 | encorafenib -0.096 | [8] -0.233 | alisertib -0.032 | [9] -0.146 | gefitinib -0.006

STX6 (UniProt O43752)
inactive: vemurafenib -0.053 | [1] 0.011 | barasertib -0.01 | [2] -0.005 | volasertib -0.006 | [3] 0.004 | [4] 0.016 | [5] -0.049 | saracatinib 0.002 | sotrastaurin 0.007 | alvocidib 0.029 | Tubastatin A 0.049 | [6] -0.023 | defactinib 0 | [7] 0.022 | encorafenib 0.037 | [8] -0.043 | alisertib -0.02 | [9] 0.016 | gefitinib -0.002

SUB1 (UniProt P53999)
inactive: vemurafenib 0.007 | [1] 0.001 | barasertib -0.044 | [2] 0.027 | volasertib 0.025 | [3] 0.002 | [4] 0.075 | [5] 0.075 | saracatinib -0.014 | sotrastaurin -0.038 | alvocidib -0.05 | Tubastatin A 0.048 | [6] -0.011 | defactinib -0.023 | [7] 0.026 | encorafenib 0.014 | [8] -0.018 | alisertib 0.018 | [9] 0.01 | gefitinib -0.019

STK24 (UniProt B4DR80)
inactive: vemurafenib 0.009 | [1] 0.005 | barasertib 0 | [2] -0.03 | volasertib -0.017 | [3] 0.005 | [4] 0.02 | [5] -0.007 | saracatinib 0.005 | sotrastaurin 0.046 | alvocidib -0.029 | Tubastatin A 0.02 | [6] -0.022 | defactinib 0.11 | [7] -0.008 | encorafenib -0.012 | [8] -0.039 | alisertib -0.037 | [9] 0.078 | gefitinib -0.052

SUMO1 (UniProt P63165)
inactive: vemurafenib 0.048 | [1] -0.031 | barasertib 0.094 | [2] -0.021 | volasertib -0.003 | [3] 0.004 | [4] -0.093 | [5] 0.031 | saracatinib 0.018 | sotrastaurin 0.057 | alvocidib 0.043 | Tubastatin A -0.014 | [6] -0.032 | defactinib -0.001 | [7] -0.124 | encorafenib 0.057 | [8] -0.051 | alisertib 0.018 | [9] -0.024 | gefitinib -0.089

STK11 (UniProt Q15831)
inactive: vemurafenib 0.029 | [1] 0.006 | barasertib 0.002 | [2] 0.078 | volasertib 0.015 | [3] -0.046 | [4] -0.011 | [5] 0.034 | saracatinib -0.084 | sotrastaurin -0.021 | alvocidib -0.017 | Tubastatin A -0.001 | [6] -0.034 | defactinib 0.041 | [7] -0.048 | encorafenib 0.024 | [8] -0.001 | alisertib -0.018 | [9] 0 | gefitinib 0.009

STT3A (UniProt P46977)
inactive: vemurafenib -0.08 | [1] 0.015 | barasertib 0.022 | [2] -0.031 | volasertib 0.028 | [3] 0.024 | [4] -0.052 | [5] 0.017 | saracatinib -0.004 | sotrastaurin 0.019 | alvocidib -0.006 | Tubastatin A -0.041 | [6] -0.007 | defactinib 0.009 | [7] -0.116 | encorafenib 0.053 | [8] -0.042 | alisertib 0.046 | [9] -0.07 | gefitinib 0.034

STON2 isoform 3 (UniProt Q8WXE9)
inactive: vemurafenib 0.057 | [1] -0.157 | barasertib 0.003 | [2] -0.061 | volasertib -0.115 | [3] 0.028 | [4] -0.045 | [5] 0 | saracatinib 0.027 | sotrastaurin 0.079 | alvocidib 0.013 | Tubastatin A -0.058 | [6] -0.078 | defactinib -0.006 | [7] -0.037 | encorafenib 0.079 | [8] 0.14 | alisertib 0.044 | [9] -0.037 | gefitinib 0.036

STMN4 isoform 2 (UniProt Q9H169)
inactive: vemurafenib -0.095 | [1] -0.087 | barasertib 0.008 | [2] -0.224 | volasertib 0.088 | [3] 0.071 | [4] 0.024 | [5] 0.045 | saracatinib 0.003 | sotrastaurin 0.012 | alvocidib -0.002 | Tubastatin A 0.016 | [6] -0.078 | defactinib 0.024 | [7] -0.108 | encorafenib -0.059 | [8] -0.074 | alisertib -0.027 | [9] -0.047 | gefitinib 0.017

STRADA (UniProt Q7RTN6)
inactive: vemurafenib -0.01 | [1] 0.093 | barasertib -0.029 | [2] 0.044 | volasertib -0.011 | [3] -0.03 | [4] -0.024 | [5] 0.034 | saracatinib -0.009 | sotrastaurin -0.039 | alvocidib -0.026 | Tubastatin A -0.029 | [6] -0.056 | defactinib -0.005 | [7] -0.007 | encorafenib 0.01 | [8] -0.054 | alisertib -0.019 | [9] -0.023 | gefitinib 0.04

STUB1 (UniProt Q9UNE7)
inactive: vemurafenib 0.01 | [1] 0.02 | barasertib -0.007 | [2] -0.072 | volasertib -0.051 | [3] 0.018 | [4] -0.015 | [5] -0.03 | saracatinib 0.006 | sotrastaurin 0.004 | alvocidib -0.012 | Tubastatin A -0.193 | [6] 0.003 | defactinib -0.029 | [7] 0.026 | encorafenib -0.025 | [8] 0.135 | alisertib 0.003 | [9] 0.007 | gefitinib -0.003

STK25 (UniProt O00506)
inactive: vemurafenib -0.018 | [1] -0.005 | barasertib 0.017 | [2] -0.034 | volasertib -0.078 | [3] -0.042 | [4] -0.037 | [5] 0.016 | saracatinib -0.026 | sotrastaurin 0.022 | alvocidib -0.016 | Tubastatin A -0.093 | [6] 0.023 | defactinib 0.147 | [7] -0.023 | encorafenib 0.025 | [8] -0.04 | alisertib -0.007 | [9] 0.036 | gefitinib -0.065

STX4 (UniProt Q12846)
inactive: vemurafenib -0.057 | [1] -0.016 | barasertib -0.053 | [2] -0.006 | volasertib 0.014 | [3] 0.014 | [4] 0.087 | [5] 0.014 | saracatinib 0.024 | sotrastaurin 0.018 | alvocidib -0.032 | Tubastatin A 0.013 | [6] -0.057 | defactinib 0.01 | [7] -0.012 | encorafenib -0.052 | [8] -0.014 | alisertib -0.029 | [9] -0.009 | gefitinib -0.01

STRAP isoform 2 (UniProt Q9Y3F4)
inactive: vemurafenib 0.011 | [1] -0.001 | barasertib -0.013 | [2] 0.018 | volasertib 0.018 | [3] -0.023 | [4] 0.002 | [5] -0.001 | saracatinib -0.011 | sotrastaurin -0.01 | alvocidib 0.018 | Tubastatin A 0.014 | [6] -0.01 | defactinib -0.008 | [7] 0.011 | encorafenib -0.004 | [8] 0.041 | alisertib 0.014 | [9] 0 | gefitinib -0.028

STK39 (UniProt Q9UEW8)
inactive: vemurafenib 0.002 | [1] 0.01 | barasertib 0.012 | [2] -0.046 | volasertib -0.048 | [3] 0.001 | [4] -0.013 | [5] -0.027 | saracatinib -0.002 | sotrastaurin 0.02 | alvocidib 0.011 | Tubastatin A -0.128 | [6] -0.015 | defactinib 0 | [7] -0.026 | encorafenib -0.021 | [8] 0.164 | alisertib -0.055 | [9] 0.02 | gefitinib 0.028

Taken from the results shown (two entries):
STK24 (UniProt B4DR80)
inactive: vemurafenib 0.009 | [1] 0.005 | barasertib 0 | [2] -0.03 | volasertib -0.017 | [3] 0.005 | [4] 0.02 | [5] -0.007 | saracatinib 0.005 | sotrastaurin 0.046 | alvocidib -0.029 | Tubastatin A 0.02 | [6] -0.022 | defactinib 0.11 | [7] -0.008 | encorafenib -0.012 | [8] -0.039 | alisertib -0.037 | [9] 0.078 | gefitinib -0.052

SUMO1 (UniProt P63165)
inactive: vemurafenib 0.048 | [1] -0.031 | barasertib 0.094 | [2] -0.021 | volasertib -0.003 | [3] 0.004 | [4] -0.093 | [5] 0.031 | saracatinib 0.018 | sotrastaurin 0.057 | alvocidib 0.043 | Tubastatin A -0.014 | [6] -0.032 | defactinib -0.001 | [7] -0.124 | encorafenib 0.057 | [8] -0.051 | alisertib 0.018 | [9] -0.024 | gefitinib -0.089
